Experimental data as given in patent US7259004B1, “Endophytic streptomycetes from higher plants with biological activity” (Montana State University, priority 2002, dated 2007).
In brackets after ≈: the same amount, converted by molar mass.

Tests used:
Type in all cases: cell-based
[1] = tested on: Enterococcus faecalis ATCC 51299 (VRE); assay: microbroth dilution MIC; settings: Table 15
[2] = tested on: E. faecalis 29212; assay: microbroth dilution MIC; settings: Enterococcus faecalis, ATCC29212; Table 15; read-out: MIC Enterococcus faecalis ATCC 29212
[3] = tested on: Pseudomonas aeruginosa ATCC 27853; assay: disk diffusion assay; settings: 10 micrograms per disk; ciprofloxacin 5, vancomycin 30 micrograms per disk; 35° C. Note: key: R = resistant.

Compound	MIC [1] [µg/mL]	MIC [2] [µg/mL]	diameter of the zone of inhibition, Pseudomonas aeruginosa ATCC 27853 [3] [mm]
CN[C@H](CC(C)C)C(=O)N[C@H]1C(=O)N[C@@H](CC(N)=O)C(=O)N[C@H]2C(=O)N[C@H]3C(=O)N[C@H](C(=O)N[C@H](C(=O)O)c4cc(O)cc(O)c4-c4cc3ccc4O)[C@H](O)c3ccc(c(Cl)c3)Oc3cc2cc(c3O[C@@H]2O[C@H](CO)[C@@H](O)[C@H](O)[C@H]2O[C@H]2C[C@](C)(N)[C@H](O)[C@H](C)O2)Oc2ccc(cc2Cl)[C@H]1O [Vancomycin, reference compound]	4 (≈ 2.76 µM)	2 (≈ 1.38 µM)	–
O=C(O)c1cn(C2CC2)c2cc(N3CCNCC3)c(F)cc2c1=O [Ciprofloxacin, reference compound]	–	–	30
